Reference: article PMC7847638
Results are given in words; binding and its absence hold for the method and conditions named. In cells and extracts the contact can be indirect. Some entries that bind do so weakly or less than the wild type. Tags and fused reporters may be left off the sequences shown.

Molecular target: T1, Nr2f2 (nuclear receptor subfamily 2, group F, member 2), HA-tagged (UniProt P24468)
T1 sequence: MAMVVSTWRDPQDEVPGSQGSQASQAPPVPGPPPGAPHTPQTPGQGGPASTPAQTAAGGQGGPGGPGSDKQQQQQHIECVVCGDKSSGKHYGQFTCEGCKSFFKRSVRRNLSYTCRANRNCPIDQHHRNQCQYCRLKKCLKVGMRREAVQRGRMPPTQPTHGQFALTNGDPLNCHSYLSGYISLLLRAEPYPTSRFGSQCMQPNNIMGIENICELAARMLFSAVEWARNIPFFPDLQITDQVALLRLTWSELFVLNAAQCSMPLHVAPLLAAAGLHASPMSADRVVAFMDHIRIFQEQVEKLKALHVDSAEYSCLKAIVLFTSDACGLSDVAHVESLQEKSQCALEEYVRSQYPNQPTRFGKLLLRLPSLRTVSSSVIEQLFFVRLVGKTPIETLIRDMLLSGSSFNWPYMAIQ
Experiment: co-IP; reciprocal co-IP of Flag-Fbxo21 and HA-Nr2f2 transfected into MGC-803 cells; RIPA lysates, 1 ug primary antibody overnight at 4 C, protein A+G beads 1 h, washed three times with PBS, western blot

binding: binds
B1: F-box protein 21 (Fbxo21), Flag-tagged (protein, UniProt O94952 1-628)
chain: MAAAAVDSAMEVVPALAEEAAPEVAGLSCLVNLPGEVLEYILCCGSLTAADIGRVSSTCRRLRELCQSSGKVWKEQFRVRWPSLMKHYSPTDYVNWLEEYKVRQKAGLEARKIVASFSKRFFSEHVPCNGFSDIENLEGPEIFFEDELVCILNMEGRKALTWKYYAKKILYYLRQQKILNNLKAFLQQPDDYESYLEGAVYIDQYCNPLSDISLKDIQAQIDSIVELVCKTLRGINSRHPSLAFKAGESSMIMEIELQSQVLDAMNYVLYDQLKFKGNRMDYYNALNLYMHQVLIRRTGIPISMSLLYLTIARQLGVPLEPVNFPSHFLLRWCQGAEGATLDIFDYIYIDAFGKGKQLTVKECEYLIGQHVTAALYGVVNVKKVLQRMVGNLLSLGKREGIDQSYQLLRDSLDLYLAMYPDQVQLLLLQARLYFHLGIWPEKSFCLVLKVLDILQHIQTLDPGQHGAVGYLVQHTLEHIERKKEEVGVEVKLRSDEKHRDVCYSIGLIMKHKRYGYNCVIYGWDPTCMMGHEWIRNMNVHSLPHGHHQPFYNVLVEDGSCRYAAQENLEYNVEPQEISHPDVGRYFSEFTGTHYIPNAELEIRYPEDLEFVYETVQNIYSAKKENIDE
